Experimental data taken from paper PMC5833723.
No constants are given. Whether binding was seen depends on the method and setting. For some assays here: In cells and extracts the contact can be indirect. Some entries that bind do so weakly or less than the wild type. Blank lines part the entries; values can stand above or below the binder they belong to.

Protein sequences, listed by entry. Tags and fused reporters are not part of them.
UniProt P31260: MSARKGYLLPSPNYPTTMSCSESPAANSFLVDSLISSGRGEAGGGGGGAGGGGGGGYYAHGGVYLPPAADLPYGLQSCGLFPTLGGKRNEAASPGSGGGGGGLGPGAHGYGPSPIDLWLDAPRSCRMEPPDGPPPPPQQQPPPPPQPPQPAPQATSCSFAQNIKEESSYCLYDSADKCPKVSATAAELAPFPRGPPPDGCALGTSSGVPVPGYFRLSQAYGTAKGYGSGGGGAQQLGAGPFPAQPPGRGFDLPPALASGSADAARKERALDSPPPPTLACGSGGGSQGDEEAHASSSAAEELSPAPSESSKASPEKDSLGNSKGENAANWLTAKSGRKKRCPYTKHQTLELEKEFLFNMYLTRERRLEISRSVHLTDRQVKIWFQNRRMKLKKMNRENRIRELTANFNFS

Legend:
[1] = biological target: HOXA10, endogenous in Ishikawa cells (human (endogenous in Ishikawa)) (UniProt P31260); assay: co-IP; 800 μg Ishikawa protein extract, endogenous proteins; HOXA10 antibody at 4 °C overnight, Protein G-agarose beads; goat IgG as negative control; immunoblot
[2] = biological target: Homeo box A10 (HOXA10), yeast two-hybrid bait (UniProt P31260); assay: two-hybrid; yeast two-hybrid screen of a human endometrium cDNA library with HOXA10 as bait

- binding [1]: binds
B1: CAPN7, endogenous in Ishikawa cells (enzyme, UniProt Q9Y6W3 1-813)
chain: MDATALERDAVQFARLAVQRDHEGRYSEAVFYYKEAAQALIYAEMAGSSLENIQEKITEYLERVQALHSAVQSKSADPLKSKHQLDLERAHFLVTQAFDEDEKENVEDAIELYTEAVDLCLKTSYETADKVLQNKLKQLARQALDRAEALSEPLTKPVGKISSTSVKPKPPPVRAHFPLGANPFLERPQSFISPQSCDAQGQRYTAEEIEVLRTTSKINGIEYVPFMNVDLRERFAYPMPFCDRWGKLPLSPKQKTTFSKWVRPEDLTNNPTMIYTVSSFSIKQTIVSDCSFVASLAISAAYERRFNKKLITGIIYPQNKDGEPEYNPCGKYMVKLHLNGVPRKVIIDDQLPVDHKGELLCSYSNNKSELWVSLIEKAYMKVMGGYDFPGSNSNIDLHALTGWIPERIAMHSDSQTFSKDNSFRMLYQRFHKGDVLITASTGMMTEAEGEKWGLVPTHAYAVLDIREFKGLRFIQLKNPWSHLRWKGRYSENDVKNWTPELQKYLNFDPRTAQKIDNGIFWISWDDLCQYYDVIYLSWNPGLFKESTCIHSTWDAKQGPVKDAYSLANNPQYKLEVQCPQGGAAVWVLLSRHITDKDDFANNREFITMVVYKTDGKKVYYPADPPPYIDGIRINSPHYLTKIKLTTPGTHTFTLVVSQYEKQNTIHYTVRVYSACSFTFSKIPSPYTLSKRINGKWSGQSAGGCGNFQETHKNNPIYQFHIEKTGPLLIELRGPRQYSVGFEVVTVSTLGDPGPHGFLRKSSGDYRCGFCYLELENIPSGIFNIIPSTFLPKQEGPFFLDFNSIIPIKITQLQ

- binding [2]: binds
B2: calpain7 (CAPN7) 550–813 AA clone (domain or fragment, UniProt Q9Y6W3 550-813)
chain: HSTWDAKQGPVKDAYSLANNPQYKLEVQCPQGGAAVWVLLSRHITDKDDFANNREFITMVVYKTDGKKVYYPADPPPYIDGIRINSPHYLTKIKLTTPGTHTFTLVVSQYEKQNTIHYTVRVYSACSFTFSKIPSPYTLSKRINGKWSGQSAGGCGNFQETHKNNPIYQFHIEKTGPLLIELRGPRQYSVGFEVVTVSTLGDPGPHGFLRKSSGDYRCGFCYLELENIPSGIFNIIPSTFLPKQEGPFFLDFNSIIPIKITQLQ
